At least one peptide structure holds a part that was inferred or is arguable (an end, a ring closure or a residue). Residues, ends and D or L forms follow the SMILES beside them.
Key:
Type in all cases: cell-based
[1] = test system: human hair follicle dermal papilla cells (HHFDPCs); assay: Western blot of proliferation-related signaling molecules (phospho-AKT, phospho-ERK) in HHFDPCs; conditions: 10 µM, 50 µM, and 100 µM, 24 hours, FIG. 1A/1B
[2] = test system: human hair follicle dermal papilla cells (HHFDPCs); assay: RT-PCR of growth factor gene expression in HHFDPCs; conditions: 10 µM, 50 µM, and 100 µM, 24 hours, FIG. 2
[3] = test system: human hair follicle dermal papilla cells (HHFDPCs); assay: Western blot of nuclear β-catenin in HHFDPCs; conditions: 10 µM, 50 µM, and 100 µM, 24 hours, Western blot of nuclear proteins
[4] = test system: human hair follicle dermal papilla cells (HHFDPCs); assay: RT-PCR of β-catenin downstream genes in HHFDPCs; conditions: 10 µM, 50 µM, and 100 µM, 24 hours, FIG. 4
[5] = test system: human hair follicle dermal papilla cells (HHFDPCs); assay: Western blot of DHT-induced DKK-1 in HHFDPCs; conditions: 10 µM, 50 µM, and 100 µM with DHT 100 nM simultaneously, 24 hours, FIG. 5
[6] = test system: human hair outer root sheath cells (HHORSCs); assay: RT-PCR of cytokeratin gene expression in HHORSCs; conditions: 10 µM, 50 µM, and 100 µM, 24 hours, FIG. 6
[7] = test system: human hair germinal matrix cells (HHGMCs); assay: RT-PCR of transcription factor gene expression in HHGMCs; conditions: 10 µM, 50 µM, and 100 µM, 24 hours, FIG. 7
[8] = test system: human hair follicle stem cells (HHFSCs); assay: MTT proliferation assay in HHFSCs; conditions: 10 µM, 50 µM, and 100 µM, concentration-dependent, 72 hours, absorbance 540 nm, FIG. 8
[9] = test system: human hair follicle stem cells (HHFSCs); assay: RT-PCR of stem cell marker genes in HHFSCs; conditions: 10 µM, 50 µM, and 100 µM, 24 hours, compared to a control, FIG. 9
[10] = test system: human hair follicle stem cells (HHFSCs); assay: RT-PCR of differentiation marker genes in HHFSCs; conditions: 10 µM, 50 µM, and 100 µM, 24 hours, compared to a control, FIG. 10
[11] = test system: human hair follicle stem cells (HHFSCs); assay: Western blot of stem cell marker proteins in HHFSCs; conditions: 10 µM, 50 µM, and 100 µM, 72 hours, FIG. 11
[12] = test system: human hair follicle stem cells (HHFSCs); assay: Western blot of differentiation marker proteins in HHFSCs; conditions: 10 µM, 50 µM, and 100 µM, 72 hours, FIG. 12

SMILES: N=C(N)NCCC[C@H](NC(=O)[C@H](CCCNC(=N)N)NC(=O)[C@H](CCCNC(=N)N)NC(=O)[C@H](CCCCN)NC(=O)CN)C(=O)O [peptide of Preparation Example 1, GKRRR] (H-GKRRR-OH)
- phosphorylation of Akt [1]: increased
- phosphorylation of extracellular signal-regulated kinase (ERK) [1]: increased
- expression of growth factor HGF [2]: promoting
- expression of growth factor KGF [2]: promoting
- expression of growth factor VEGF [2]: promoting
- expression of growth factor bFGF [2]: promoting
- activation of the Wnt/β-catenin ([3]; FIG. 3): observed
- nuclear translocation of β-catenin ([3]; relative to HDAC1, FIG. 3): markedly increased
- gene expression of Cyclin D1 [4]: increasing
- gene expression of LEF-1 [4]: increasing
- gene expression of c-Myc [4]: increasing
- expression of the hair loss-inducing protein DKK-1 induced by DHT treatment [5]: decreased again in a concentration-dependent manner
- gene expression of cytokeratin protein Ha3-II [6]: increasing
- gene expression of cytokeratin protein Keratin 5 [6]: increasing
- gene expression of cytokeratin protein Keratin 14 [6]: increasing
- gene expression of cytokeratin protein Keratin 19 [6]: increasing
- gene expression of transcription factor FOXN1 [7]: increased
- gene expression of transcription factor HOXC13 [7]: increased
- gene expression of transcription factor MSX2 [7]: increased
- proliferation of HHFSCs promoted compared to a control [8]: up to 55.76%
- gene expression of stem cell marker CD34 [9]: markedly decreased
- gene expression of stem cell marker CD133 [9]: markedly decreased
- gene expression of stem cell marker Keratin 15 [9]: markedly decreased
- gene expression of stem cell marker LHX2 [9]: markedly decreased
- gene expression of differentiation marker Keratin-75 [10]: markedly increased
- gene expression of differentiation marker Nexin-1 [10]: markedly increased
- gene expression of differentiation marker Vimentin [10]: markedly increased
- gene expression of differentiation marker α-SMA [10]: markedly increased
- protein expression of stem cell marker CD34 [11]: decreased
- protein expression of stem cell marker CD133 [11]: decreased
- protein expression of stem cell marker Keratin 15 [11]: decreased
- protein expression of stem cell differentiation marker Keratin 75 [12]: markedly increased
- protein expression of stem cell differentiation marker Versican [12]: markedly increased
- protein expression of stem cell differentiation marker α-SMA [12]: markedly increased

— patent EP4763216A1, “COMPOSITION FOR PROMOTING HAIR GROWTH, OR INHIBITING, PREVENTING, OR ALLEVIATING HAIR LOSS, COMPRISING PEPTIDE AS ACTIVE INGREDIENT” (Caregen Co., Ltd., priority 2023, dated 2025)
